In the supplement of paper PMC4604168 (melanoma cell lines):
The list shows a part of the results. Single values are uncertain, as repeats are few or missing.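 Imaging used 1,536-well plates; nuclei positive for cleaved PARP by antibody were divided by total DNA-stained nuclei to yield the apoptosis fraction. Doses for screening kept most cells viable, and cell lines differ markedly in resting and induced cleaved-PARP levels.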

Experiments:
Experiment in all cases: cleaved PARP positive nuclei fraction relative to DMSO control; melanoma cells; higher = more apoptosis
Details in all cases: library dose: low library concentration; 72 h
[1] = system: 501Mel
[2] = system: A101D
[3] = system: A2058
[4] = system: A375
[5] = system: C32
[6] = system: CBRC008 (line from a melanoma biopsy)
[7] = system: CBRC013 (line from a melanoma biopsy)
[8] = system: CBRC014 (line from a melanoma biopsy)
[9] = system: CBRC016 (line from a melanoma biopsy)
[10] = system: CBRC017 (line from a melanoma biopsy)
[11] = system: COLO792
[12] = system: COLO800
[13] = system: COLO829
[14] = system: G361
[15] = system: IPC-298
[16] = system: IST-MEL1
[17] = system: LB2518-MEL
[18] = system: LOXIMVI
[19] = system: MEL-HO

Compound	cleaved PARP positive nuclei fraction [1] [%]	cleaved PARP positive nuclei fraction [2] [%]	cleaved PARP positive nuclei fraction [3] [%]	cleaved PARP positive nuclei fraction [4] [%]	cleaved PARP positive nuclei fraction [5] [%]	cleaved PARP positive nuclei fraction [6] [%]	cleaved PARP positive nuclei fraction [7] [%]	cleaved PARP positive nuclei fraction [8] [%]	cleaved PARP positive nuclei fraction [9] [%]	cleaved PARP positive nuclei fraction [10] [%]	cleaved PARP positive nuclei fraction [11] [%]	cleaved PARP positive nuclei fraction [12] [%]	cleaved PARP positive nuclei fraction [13] [%]	cleaved PARP positive nuclei fraction [14] [%]	cleaved PARP positive nuclei fraction [15] [%]	cleaved PARP positive nuclei fraction [16] [%]	cleaved PARP positive nuclei fraction [17] [%]	cleaved PARP positive nuclei fraction [18] [%]	cleaved PARP positive nuclei fraction [19] [%]
CN1CCN(c2ccc3nc(-c4c(N)c5c(F)cccc5[nH]c4=O)[nH]c3c2)CC1 [Dovitinib] + CN(NC(=O)CC(=O)NN(C)C(=S)c1ccccc1)C(=S)c1ccccc1 [STA4783] (first compound 0.1 µM, partner dose 0.006 µM)	250	294	51	1260	122	2130	222	548	134	175	171	29.3	80.8	73.4	67.3	136	119	47.5	86.5
C[C@@H](Oc1cc(-c2cnn(C3CCNCC3)c2)cnc1N)c1c(Cl)ccc(F)c1Cl [Crizotinib] + O=C(O)c1ccc(-c2c[nH]c3ncc(-c4ccccc4)cc23)cc1C1CCCC1 [GSK650394] (first compound 0.2 µM, partner dose 0.16 µM)	76.1	87.6	18.8	43.1	137	412	102	92.8	135	109	195	154	65.6	108	92.9	149	138	37.8	144
CN1CCN(c2ccc3nc(-c4c(N)c5c(F)cccc5[nH]c4=O)[nH]c3c2)CC1 [Dovitinib] + CN(C)S(=O)(=O)c1ccc2c(c1)/C(=C/c1cc3c([nH]1)CCCC3)C(=O)N2 [SU6656] (first compound 0.1 µM, partner dose 0.4 µM)	97.5	146	285	164	79.4	66.8	127	98.7	81	86.8	111	107	65	203	98.9	178	108	102	54.1
CCCS(=O)(=O)Nc1ccc(F)c(C(=O)c2c[nH]c3ncc(Cl)cc23)c1F + C=CCn1c(=O)c2cnc(Nc3ccc(N4CCN(C)CC4)cc3)nc2n1-c1cccc(C(C)(C)O)n1 [MK1775] (first compound 0.08 µM, partner dose 0.02 µM)	94.4	55.3	37.1	373	88.5	57.6	97	133	308	93.5	215	194	36.9	103	108	261	114	32	23.9
Cc1cc(Nc2cc(N3CCN(C)CC3)nc(/C=C/c3ccccc3)n2)n[nH]1 + OCCn1cc(-c2cnc3nnn(Cc4ccc5ncccc5c4)c3n2)cn1 [PF04217903] (first compound 0.04 µM, partner dose 1 µM)	180	104	96.6	26.5	47.1	257	107	217	35.3	89.8	51.9	37.7	104	133	89.5	82.6	48.1	19.9	186
Cn1c(=O)n(-c2ccc(C(C)(C)C#N)cc2)c2c3cc(-c4cnc5ccccc5c4)ccc3ncc21 + NC(=O)Nc1cc(-c2cccc(F)c2)sc1C(=O)N[C@H]1CCCNC1 [AZD7762] (first compound 0.004 µM, partner dose 0.02 µM)	168	107	27.1	1340	289	118	90.3	102	27.8	96.8	94.4	149	88	84.3	90.3	85.8	83.3	168	68.7
CO[C@H]1C[C@@H]2CC[C@@H](C)[C@@](O)(O2)C(=O)C(=O)N2CCCC[C@H]2C(=O)O[C@H]([C@H](C)C[C@@H]2CC[C@@H](OCCO)[C@H](OC)C2)CC(=O)[C@H](C)/C=C(\C)[C@@H](O)[C@@H](OC)C(=O)[C@H](C)C[C@H](C)/C=C/C=C/C=C/1C [everolimus] + Cn1cncc1[C@@](N)(c1ccc(Cl)cc1)c1ccc2c(c1)c(-c1cccc(Cl)c1)cc(=O)n2C [tipifarnib] (first compound 0.02 µM, partner dose 0.01 µM)	155	104	55.1	226	85.6	147	147	106	89.2	104	195	61	115	153	69.3	107	52.4	83.1	419
CC(C)C[C@H](NC(=O)[C@H](Cc1ccccc1)NC(=O)c1cnccn1)B(O)O [Bortezomib] + C[C@@H]1CCN(C(=O)CC#N)C[C@@H]1N(C)c1ncnc2[nH]ccc12 [CP690550] (first compound 0.001 µM, partner dose 1 µM)	439	251	192	90.3	89.4	598	61.7	214	394	111	110	165	234	1110	110	57.5	180	44.1	239
Cn1c(=O)n(-c2ccc(C(C)(C)C#N)cc2)c2c3cc(-c4cnc5ccccc5c4)ccc3ncc21 + O=C(O)c1ccc(-c2c[nH]c3ncc(-c4ccccc4)cc23)cc1C1CCCC1 [GSK650394] (first compound 0.004 µM, partner dose 0.16 µM)	200	98.3	202	119	82.6	132	75.2	98.6	154	110	84.9	194	200	97.9	47.5	90.9	44.1	44	146
CO[C@H]1C[C@@H]2CC[C@@H](C)[C@@](O)(O2)C(=O)C(=O)N2CCCC[C@H]2C(=O)O[C@H]([C@H](C)C[C@@H]2CC[C@@H](OCCO)[C@H](OC)C2)CC(=O)[C@H](C)/C=C(\C)[C@@H](O)[C@@H](OC)C(=O)[C@H](C)C[C@H](C)/C=C/C=C/C=C/1C [everolimus] + NCC(=O)Nc1ccc(-n2nc(C(F)(F)F)cc2-c2ccc3c(ccc4ccccc43)c2)cc1 [OSU03012] (first compound 0.02 µM, partner dose 1 µM)	867	111	154	3320	46.5	119	128	82	90.1	130	52.1	136	104	208	109	247	106	241	48.8
O=C(O)[C@@H]1[O][Sb](=[O])([O][Sb]2(=[O])[O][C@H]([C@H](O)CO)[C@H](O)[C@H](C(=O)O)[O]2)[O][C@H]([C@H](O)CO)[C@@H]1O (some centres undefined) [stibogluconate] + O=C(CCCCCCC(=O)Nc1ccccc1)NO [vorinostat] (first compound 2 µM, partner dose 0.08 µM)	371	70	29.5	63.6	103	53.5	124	83.8	106	95.4	77.4	41	58.6	47.1	94.7	63.1	63.6	71.9	148
CO[C@H]1C[C@@H]2CC[C@@H](C)[C@@](O)(O2)C(=O)C(=O)N2CCCC[C@H]2C(=O)O[C@H]([C@H](C)C[C@@H]2CC[C@@H](OCCO)[C@H](OC)C2)CC(=O)[C@H](C)/C=C(\C)[C@@H](O)[C@@H](OC)C(=O)[C@H](C)C[C@H](C)/C=C/C=C/C=C/1C [everolimus] + COc1cc2c(Oc3ccc4[nH]c(C)cc4c3F)ncnc2cc1OCCCN1CCCC1 [cediranib] (first compound 0.02 µM, partner dose 0.4 µM)	303	157	163	253	40.5	133	76.3	90.3	41.5	129	126	164	175	107	143	72	71.3	139	90.1
Cc1cc(Nc2cc(N3CCN(C)CC3)nc(/C=C/c3ccccc3)n2)n[nH]1 + O=C(CCCCCCC(=O)Nc1ccccc1)NO [vorinostat] (first compound 0.04 µM, partner dose 0.08 µM)	90.3	231	123	130	64.6	46.1	81.8	74.4	78	108	127	108	68.9	158	98.5	132	88.3	105	73
Cn1c(=O)n(-c2ccc(C(C)(C)C#N)cc2)c2c3cc(-c4cnc5ccccc5c4)ccc3ncc21 + Cc1cc(N2CCOCC2)cc2[nH]c(-c3c(NC[C@@H](O)c4cccc(Cl)c4)cc[nH]c3=O)nc12 [BMS536924] (first compound 0.004 µM, partner dose 0.2 µM)	95	41.9	25.1	553	133	365	390	94.8	58.4	108	191	251	229	136	51.3	39.4	97.4	110	70.1
Nc1ccn([C@@H]2O[C@H](CO)[C@@H](O)C2(F)F)c(=O)n1 [gemcitabine] + Cc1cc(N2CCOCC2)cc2[nH]c(-c3c(NC[C@@H](O)c4cccc(Cl)c4)cc[nH]c3=O)nc12 [BMS536924] (first compound 0.0004 µM, partner dose 0.2 µM)	132	161	366	64.6	115	107	159	123	116	3170	92.3	90.2	88	39.2	175	121	50.2	36.9	42
C=C(c1ccc(C(=O)O)cc1)c1cc2c(cc1C)C(C)(C)CCC2(C)C [Bexarotene] + O=C(O)c1ccc(-c2c[nH]c3ncc(-c4ccccc4)cc23)cc1C1CCCC1 [GSK650394] (first compound 2 µM, partner dose 0.16 µM)	83.6	70.3	70.5	50.2	72.7	169	91	103	135	123	129	55.6	119	85	169	295	58.5	53.5	167

As a short view, part of the list above.
Compound	cleaved PARP positive nuclei fraction [1] [%]	cleaved PARP positive nuclei fraction [2] [%]	cleaved PARP positive nuclei fraction [3] [%]	cleaved PARP positive nuclei fraction [4] [%]	cleaved PARP positive nuclei fraction [5] [%]	cleaved PARP positive nuclei fraction [6] [%]	cleaved PARP positive nuclei fraction [7] [%]	cleaved PARP positive nuclei fraction [8] [%]	cleaved PARP positive nuclei fraction [9] [%]	cleaved PARP positive nuclei fraction [10] [%]	cleaved PARP positive nuclei fraction [11] [%]	cleaved PARP positive nuclei fraction [12] [%]	cleaved PARP positive nuclei fraction [13] [%]	cleaved PARP positive nuclei fraction [14] [%]	cleaved PARP positive nuclei fraction [15] [%]	cleaved PARP positive nuclei fraction [16] [%]	cleaved PARP positive nuclei fraction [17] [%]	cleaved PARP positive nuclei fraction [18] [%]	cleaved PARP positive nuclei fraction [19] [%]
CC(C)C[C@H](NC(=O)[C@H](Cc1ccccc1)NC(=O)c1cnccn1)B(O)O [Bortezomib] + C[C@@H]1CCN(C(=O)CC#N)C[C@@H]1N(C)c1ncnc2[nH]ccc12 [CP690550] (first compound 0.001 µM, partner dose 1 µM)	439	251	192	90.3	89.4	598	61.7	214	394	111	110	165	234	1110	110	57.5	180	44.1	239
Cn1c(=O)n(-c2ccc(C(C)(C)C#N)cc2)c2c3cc(-c4cnc5ccccc5c4)ccc3ncc21 + O=C(O)c1ccc(-c2c[nH]c3ncc(-c4ccccc4)cc23)cc1C1CCCC1 [GSK650394] (first compound 0.004 µM, partner dose 0.16 µM)	200	98.3	202	119	82.6	132	75.2	98.6	154	110	84.9	194	200	97.9	47.5	90.9	44.1	44	146
